# Values quoted from earlier work in US20070155023A1, “Identification of proteins and other species with emissive chelating label” (Massachusetts Institute of Technology, priority 2005, published 2007).
# At least one compound was matched to its structure with a doubt left.
# Conditions: fluorescein in 0.1 M NaOH; cited from earlier work
structure (smiles),measurement,value
O=C1OC2(c3ccc(O)cc3Oc3cc(O)ccc32)c2ccccc21 [fluorescein],Quantum yield Φ of reference standard,0.95
